# These are yes or no findings as the source states them, for the method shown. Some binding calls cover weakened binding; strength is not graded here.
# The chains behind the UniProt entries cited, without tags or fusion partners. Residues count along the entry.
# UniProt P07359, residues 17-531: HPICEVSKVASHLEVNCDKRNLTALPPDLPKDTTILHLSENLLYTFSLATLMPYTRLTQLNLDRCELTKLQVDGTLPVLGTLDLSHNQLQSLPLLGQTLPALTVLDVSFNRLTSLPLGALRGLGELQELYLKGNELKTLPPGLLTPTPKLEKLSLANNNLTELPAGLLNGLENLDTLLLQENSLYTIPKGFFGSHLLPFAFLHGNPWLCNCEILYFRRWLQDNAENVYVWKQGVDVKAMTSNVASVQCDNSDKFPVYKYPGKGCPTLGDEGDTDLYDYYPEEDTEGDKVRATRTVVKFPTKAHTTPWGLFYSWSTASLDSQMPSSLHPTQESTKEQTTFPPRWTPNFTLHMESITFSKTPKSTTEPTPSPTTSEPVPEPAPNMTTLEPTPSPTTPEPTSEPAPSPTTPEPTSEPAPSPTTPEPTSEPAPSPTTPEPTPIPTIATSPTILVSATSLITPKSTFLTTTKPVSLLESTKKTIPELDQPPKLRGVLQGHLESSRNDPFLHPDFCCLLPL
# UniProt Q939N5, residues 86-3041: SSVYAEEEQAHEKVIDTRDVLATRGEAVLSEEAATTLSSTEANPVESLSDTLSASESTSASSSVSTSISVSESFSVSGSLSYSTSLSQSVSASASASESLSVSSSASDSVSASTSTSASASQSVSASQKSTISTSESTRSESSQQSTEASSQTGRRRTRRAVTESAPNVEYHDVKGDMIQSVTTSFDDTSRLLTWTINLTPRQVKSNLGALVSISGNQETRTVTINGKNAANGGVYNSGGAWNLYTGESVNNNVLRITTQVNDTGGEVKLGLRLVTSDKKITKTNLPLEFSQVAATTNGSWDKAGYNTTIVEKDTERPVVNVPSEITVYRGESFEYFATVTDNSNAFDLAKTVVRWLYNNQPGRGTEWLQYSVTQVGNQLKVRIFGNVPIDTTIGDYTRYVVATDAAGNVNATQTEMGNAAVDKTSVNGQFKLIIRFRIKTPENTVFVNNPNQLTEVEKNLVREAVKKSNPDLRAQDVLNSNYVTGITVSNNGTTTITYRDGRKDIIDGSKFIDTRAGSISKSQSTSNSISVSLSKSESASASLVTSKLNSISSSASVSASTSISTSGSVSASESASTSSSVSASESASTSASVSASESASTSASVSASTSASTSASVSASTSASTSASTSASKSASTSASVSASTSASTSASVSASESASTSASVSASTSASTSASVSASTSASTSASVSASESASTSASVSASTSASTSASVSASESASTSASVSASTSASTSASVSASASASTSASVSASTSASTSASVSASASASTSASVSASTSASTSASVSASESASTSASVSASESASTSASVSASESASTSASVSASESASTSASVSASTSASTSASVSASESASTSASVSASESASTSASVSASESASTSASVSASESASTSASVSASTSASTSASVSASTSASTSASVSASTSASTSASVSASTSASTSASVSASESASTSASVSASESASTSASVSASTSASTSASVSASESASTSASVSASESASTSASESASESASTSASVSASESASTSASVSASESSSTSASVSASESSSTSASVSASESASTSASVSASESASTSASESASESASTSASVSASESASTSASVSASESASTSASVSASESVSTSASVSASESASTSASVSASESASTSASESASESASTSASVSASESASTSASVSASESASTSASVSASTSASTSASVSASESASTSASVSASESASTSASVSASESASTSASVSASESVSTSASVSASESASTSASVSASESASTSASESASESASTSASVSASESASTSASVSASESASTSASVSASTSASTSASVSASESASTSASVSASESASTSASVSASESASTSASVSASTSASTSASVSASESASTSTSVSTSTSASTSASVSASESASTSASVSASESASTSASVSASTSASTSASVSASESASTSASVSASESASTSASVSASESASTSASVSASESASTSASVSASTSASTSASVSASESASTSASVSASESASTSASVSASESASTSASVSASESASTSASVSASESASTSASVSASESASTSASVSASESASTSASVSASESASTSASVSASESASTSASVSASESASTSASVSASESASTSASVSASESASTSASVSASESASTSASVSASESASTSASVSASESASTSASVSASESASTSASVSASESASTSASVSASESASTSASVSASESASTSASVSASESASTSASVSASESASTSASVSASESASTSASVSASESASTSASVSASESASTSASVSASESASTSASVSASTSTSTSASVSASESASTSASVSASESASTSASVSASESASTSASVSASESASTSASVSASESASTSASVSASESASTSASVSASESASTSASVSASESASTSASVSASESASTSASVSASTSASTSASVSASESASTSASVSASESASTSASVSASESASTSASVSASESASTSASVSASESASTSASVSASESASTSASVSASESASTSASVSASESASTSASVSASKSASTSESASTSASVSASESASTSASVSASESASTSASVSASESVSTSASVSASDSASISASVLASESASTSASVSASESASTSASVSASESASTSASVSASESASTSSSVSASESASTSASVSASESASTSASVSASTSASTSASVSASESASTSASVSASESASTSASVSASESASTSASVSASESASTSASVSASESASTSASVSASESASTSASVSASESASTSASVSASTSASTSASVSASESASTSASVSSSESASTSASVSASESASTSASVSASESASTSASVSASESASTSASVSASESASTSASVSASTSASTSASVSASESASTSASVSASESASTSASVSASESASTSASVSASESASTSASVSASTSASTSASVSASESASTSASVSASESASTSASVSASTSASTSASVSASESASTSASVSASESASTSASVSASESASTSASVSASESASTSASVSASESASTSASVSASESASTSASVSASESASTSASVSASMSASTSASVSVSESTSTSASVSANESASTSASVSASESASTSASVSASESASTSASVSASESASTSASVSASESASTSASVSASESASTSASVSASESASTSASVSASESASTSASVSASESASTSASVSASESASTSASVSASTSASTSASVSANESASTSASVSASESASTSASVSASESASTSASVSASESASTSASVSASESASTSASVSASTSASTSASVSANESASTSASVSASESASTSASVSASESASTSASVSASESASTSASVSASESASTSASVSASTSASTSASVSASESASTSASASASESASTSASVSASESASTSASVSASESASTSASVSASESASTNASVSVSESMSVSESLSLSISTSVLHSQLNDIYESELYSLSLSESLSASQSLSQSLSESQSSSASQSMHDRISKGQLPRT
# Molecular target: glycocalicin, the carbohydrate-rich extracellular portion of the platelet membrane glycoprotein GPIbα (human) (UniProt P07359)
# Assay: binding of whole bacteria to immobilised protein in microtiter wells; glycocalicin coated on wells (1.25 µg/well); bacteria about 2x10^7 per ml in DPBS, 2 h at room temperature, three washes; bound bacteria released by trypsin and counted by plating; percent of input bound; n = 6; only the target purified
substance,measurement,value
"GspB of Streptococcus gordonii strain M99, wild type, on the bacterial cell surface (from UniProt Q939N5 86-3041)",binding,binds
